# Measured values as given in PubChem BioAssay AID1508600 (Functional Genomics Laboratory (NCATS/FGL), 2020).
# Screen size: about 53,000 sequences; about 3,700 (7%) were called active.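 Rule for the calls: active = gene knockdowns whose robust z-score for IL-1 alpha signal is at least 2 or at most -2, so actives lie on both sides; inactive = the rest.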 This is one part of the list.
# Assay: Components of the Cytosolic LPS Sensing Pathway: Gene Identification via Genome-wide siRNA Screen;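 note: robust z of the log signal after scaling to non-targeting control siRNA wells of the plate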
# Settings: RAW264.7 macrophages, IL-1a HTRF, actives lie on both sides, screened at 100 nM (by protocol), cells primed 5 h with Pam3CSK4 first
# Method in brief: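 RAW264.7 mouse macrophages reverse-transfected with single siRNAs (100 nM final) for 48h, primed with Pam3CSK4 for 5 hours, then transfected with LipidA for 24 hour. Supernatant IL-1a read by HTRF; values normalized to negative-control median, log-transformed robust z-scores.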
row,Sequence,z-score
1,CCUUUUUUUGGUAACUCGUTT against Sox11,inactive: -0.0308
2,CCUCCCUCACUCAAAUUGGTT against Bok,inactive: -0.758
3,GGCCUUCAUCCAACUCUGUTT against Ttc16,inactive: -0.777
4,GGGUUAAGCGCAAGUGUAATT against Degs2,inactive: 0.331
5,GGUCUUGGGAGAAGAUACATT against Gem,inactive: -1.09
6,GCUCUUCUCAGAGUGUGUATT against Rwdd3,inactive: -1.76
7,GGCUUCUUUUCACAAAUAGTT against Nipsnap1,inactive: -0.0394
8,GGCUUAUACAAGGUGCUCATT against Olfr661,inactive: -0.416
9,GCUUUUAAAGCAUGGGCAGTT against Alb,active: 2.44
10,GCUUUGUGGAGUUCAACCUTT against Kcnh6,inactive: 0.234
11,GGACCUAAUCCAUAAGGUCTT against Pcyox1l,inactive: -0.379
12,GGACUAAAAGAUUGGUGGUTT against Polr2k,inactive: -1.41
13,GGAAAACCAGAAAGAAUUUTT against Crnkl1,inactive: -0.334
14,CCUUCUUUAAACCUCCAUGTT against Vegfc,inactive: 0.347
15,GCGAUCCUGACUUGUUCAATT against Kdm6b,active: 2.27
16,GGGAACCGCUUAUAUGUCCTT against Tbx21,inactive: -0.195
17,GCCUUAGGCAUUUAGAUUUTT against Zbed4,inactive: 1.33
18,GGUGCAUGCACUGAAGAAGTT against Mpv17,inactive: 1.39
19,GGUCCUCCCAUAAUCUAGUTT against Lrrc75a,inactive: 1.18
20,GGAAGGGACUGAUCGGUACTT against Igsf8,inactive: 1.61
21,GGGUAUCCAGUAUUUGAUCTT against Iqsec2,inactive: -0.544
22,CGAAUGAAAGAAUACCGUGTT against Dnajc6,inactive: 0.0901
23,GGUUUUUUUCUUCACAGGUTT against Olfr127,inactive: 0.309

# Twelve entries from above, with bars between the fields:
row | Sequence | z-score
8 | GGCUUAUACAAGGUGCUCATT against Olfr661 | inactive: -0.416
9 | GCUUUUAAAGCAUGGGCAGTT against Alb | active: 2.44
10 | GCUUUGUGGAGUUCAACCUTT against Kcnh6 | inactive: 0.234
11 | GGACCUAAUCCAUAAGGUCTT against Pcyox1l | inactive: -0.379
12 | GGACUAAAAGAUUGGUGGUTT against Polr2k | inactive: -1.41
13 | GGAAAACCAGAAAGAAUUUTT against Crnkl1 | inactive: -0.334
14 | CCUUCUUUAAACCUCCAUGTT against Vegfc | inactive: 0.347
15 | GCGAUCCUGACUUGUUCAATT against Kdm6b | active: 2.27
16 | GGGAACCGCUUAUAUGUCCTT against Tbx21 | inactive: -0.195
17 | GCCUUAGGCAUUUAGAUUUTT against Zbed4 | inactive: 1.33
18 | GGUGCAUGCACUGAAGAAGTT against Mpv17 | inactive: 1.39
19 | GGUCCUCCCAUAAUCUAGUTT against Lrrc75a | inactive: 1.18

# (listing goes on)

row,Sequence,z-score
1,GGAAAAACUCCCUCGGUACTT against Rps11,inactive: 0.683
2,GAAAGUGUUCAGGAAGCUGTT against Klra19,inactive: -0.241
3,GGUGAAAAAGGUUAGAAAATT against Wasf3,inactive: -0.164
4,GGUAGCAGACAGCUACCCUTT against Tnfsf15,inactive: 0.405
5,GGGCAUUUCUUUGUCUAUCTT against Nme1,inactive: 1.09
6,GGCAGCAUGGAGAACGAGATT against Camk1,inactive: -1.03
7,GCAAUCGACCGCAUCCUAATT against Gm4827,inactive: -1.32
8,CGAGCACUAUUUUGGAUUATT against Usp12,inactive: 0.0102
9,GGUCAGUGAAGUUUAACAATT against Fam219b,inactive: -0.0232
10,GGUAAAGUGGGAUGUGGAATT against Mysm1,inactive: -1.03
11,CCUGUGCAUACGUUUGGCATT against Olfr1335,inactive: -0.754
12,GGACUUGUUCUACAAGUACTT against Srsf9,inactive: 0.682
13,GGUCUUCAAUAAACUCAUCTT against Bzw2,inactive: -0.769
14,GGAGCUGAACAUGUUAACUTT against Shq1,inactive: -0.274
15,GCACAAACCUGUGGCAUUUTT against Cacnb3,inactive: -0.234
16,GGUUAGCAGGGACCUAAUGTT against Zfp94,active: 2.57
17,GGCCGUUAUGUUUUACAAGTT against Dnajc19,inactive: 0.00748
18,CCCUGUAUCAUGCACGUAATT against Kcnj4,inactive: 0.678
19,GGUUUGUUUUCAGAUGAAGTT against Washc2,inactive: 0.155
20,GCUCCCACACUUCAUCCCUTT against Sh3d21,inactive: 1.19
21,CCCAUUUAAAUACGGGAUUTT against Txlng,inactive: 0.832
22,CGACUAGGCAUCUAUGAAGTT against Kremen2,inactive: -1.19
23,GCCCUUAGAAGUCAUUGAGTT against Lypd1,inactive: -0.257

row,Sequence,z-score
1,GGUUUAUCCUACAGCGAAGTT against Prl8a1,inactive: 1.12
2,GGUCCCUGGAAACCAUCAGTT against Ssxb2,inactive: -1.54
3,GGCUCAAUUUGGAAAGGACTT against Anxa8,inactive: -0.586
4,GGCCAAUCAGCCAUCCUAUTT against Lilrb4a,inactive: 0.0446
5,GAUCAUCGGCAUUUUGAACTT against Il4,inactive: -0.527
6,GCAAUGGACUGACAUGUCATT against Csdc2,inactive: -0.339
7,GGCUGACUAUGCUGCCACATT against Npdc1,inactive: 0.457
8,GGAAGCACAAGUGCCACUATT against Klf13,inactive: -0.591
9,GGUACCUGAAUGACUUAUATT against Hcfc1,inactive: -0.207
10,GGAGAAGUUACUGAUGAGATT against Ghdc,inactive: -0.713
11,GGUAGCUAUUAAAGAAUCCTT against AW209491,inactive: 1.12
12,GGGACUUGGUUCAAACGACTT against Tbx3,inactive: -0.00336
13,GGACCAAGCCAUCUGAGUUTT against Tmem114,inactive: 1.26
14,GGGUGGAGACUUGGAAAUGTT against Spag11a,inactive: -0.69
15,CCAGUAAUUAGCAUGUACGTT against Olfr1370,inactive: 0.441
16,GGACAGGUGUCGAUCAAACTT against Zfp280c,inactive: 0.0987
17,GGCAACCAAAACGAUACAATT against Entpd7,inactive: 0.637
18,GGAGAAACGCAUCAACCCUTT against Pou2f2,inactive: -0.621
19,CCUAAAAGACUUCAUCCGUTT against Kcnh8,active: 2.32
20,GCCAGUGACUGUCCUUACATT against Dag1,inactive: 0.411
21,CCUUAUAGAGAGAGCCCUGTT against Tcf25,inactive: -1.23
22,GGCUAAUACCAAACCUAUATT against Spata20,inactive: -0.251
